PubChem BioAssay AID1159600, NIAID | 2016
The deposit covers 756 reagents; this is an unselected part. 134 of all reagents (18%) were called active. 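Active includes both reduced and increased reporter signal, though most active siRNAs reduce it; R848 dose unknown.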 Reagents against one gene are numbered here. Not given: the amount of reagent.

Aim: 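Which TLR pathway genes support TNF promoter activation by R848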 (primary screen)
Cells: human THP-1 TNF reporter clone B5, made macrophage-like with PMA
Reagents: single siRNA against human genes
Time to read-out: 4 h ligand stimulation, assayed 48 to 72 h after siRNA transfection
Challenge: R848 (TLR7/8 agonist) for 4 hours before lysis; dose not given
Detection: 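TNF promoter firefly to renilla luciferase ratio after 4 h R848, scaled per plate by median and MAD, robust z-score against negative controls, mean of replicates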
Reading the numbers: TNF reporter z-score: higher = stronger TNF promoter reporter signal after R848
Call rule: 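siRNAs graded by distance of mean z-score from zero in steps of 1, 1.5, 2 and 2.5; active calls sit at roughly -1.5 or below, or 1.5 or above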
Calls: active = strong change in TNF reporter (up or down); inactive = little change

{"Gene": "MAPK11 (mitogen-activated protein kinase 11)", "reagent": 1, "TNF reporter z-score": -0.431, "activity call": "inactive"}
{"Gene": "MAPK11 (mitogen-activated protein kinase 11)", "reagent": 2, "TNF reporter z-score": -0.734, "activity call": "inactive"}
{"Gene": "MAPK11 (mitogen-activated protein kinase 11)", "reagent": 3, "TNF reporter z-score": -1.3, "activity call": "inactive"}
{"Gene": "MAPK11 (mitogen-activated protein kinase 11)", "reagent": 4, "TNF reporter z-score": -0.364, "activity call": "inactive"}
{"Gene": "MAPK11 (mitogen-activated protein kinase 11)", "reagent": 5, "TNF reporter z-score": -0.455, "activity call": "inactive"}
{"Gene": "MAPK11 (mitogen-activated protein kinase 11)", "reagent": 6, "TNF reporter z-score": -0.126, "activity call": "inactive"}
{"Gene": "EP300 (EP300 lysine acetyltransferase)", "reagent": 1, "TNF reporter z-score": -2.56, "activity call": "active"}
{"Gene": "EP300 (EP300 lysine acetyltransferase)", "reagent": 2, "TNF reporter z-score": -1.88, "activity call": "active"}
{"Gene": "EP300 (EP300 lysine acetyltransferase)", "reagent": 3, "TNF reporter z-score": -0.0915, "activity call": "inactive"}
{"Gene": "EP300 (EP300 lysine acetyltransferase)", "reagent": 4, "TNF reporter z-score": -1.13, "activity call": "inactive"}
{"Gene": "EP300 (EP300 lysine acetyltransferase)", "reagent": 5, "TNF reporter z-score": 0.595, "activity call": "inactive"}
{"Gene": "EP300 (EP300 lysine acetyltransferase)", "reagent": 6, "TNF reporter z-score": 0.498, "activity call": "inactive"}
{"Gene": "STAT1 (signal transducer and activator of transcription 1)", "reagent": 1, "TNF reporter z-score": -0.166, "activity call": "inactive"}
{"Gene": "STAT1 (signal transducer and activator of transcription 1)", "reagent": 2, "TNF reporter z-score": -0.726, "activity call": "inactive"}
{"Gene": "STAT1 (signal transducer and activator of transcription 1)", "reagent": 3, "TNF reporter z-score": -1.48, "activity call": "inactive"}
{"Gene": "STAT1 (signal transducer and activator of transcription 1)", "reagent": 4, "TNF reporter z-score": 0.494, "activity call": "inactive"}
{"Gene": "STAT1 (signal transducer and activator of transcription 1)", "reagent": 5, "TNF reporter z-score": 1.27, "activity call": "inactive"}
{"Gene": "STAT1 (signal transducer and activator of transcription 1)", "reagent": 6, "TNF reporter z-score": 0.115, "activity call": "inactive"}
{"Gene": "TOLLIP (toll interacting protein)", "reagent": 1, "TNF reporter z-score": -1.29, "activity call": "inactive"}
{"Gene": "TOLLIP (toll interacting protein)", "reagent": 2, "TNF reporter z-score": -1.66, "activity call": "active"}
{"Gene": "TOLLIP (toll interacting protein)", "reagent": 3, "TNF reporter z-score": 1.06, "activity call": "inactive"}
{"Gene": "TOLLIP (toll interacting protein)", "reagent": 4, "TNF reporter z-score": -1.15, "activity call": "inactive"}
{"Gene": "TOLLIP (toll interacting protein)", "reagent": 5, "TNF reporter z-score": 0.474, "activity call": "inactive"}
{"Gene": "TOLLIP (toll interacting protein)", "reagent": 6, "TNF reporter z-score": -0.515, "activity call": "inactive"}
